{
  "sequences": {"note": "By UniProt entry, the sequences of proteins in these tests, tags left out.", "UniProt P63279": "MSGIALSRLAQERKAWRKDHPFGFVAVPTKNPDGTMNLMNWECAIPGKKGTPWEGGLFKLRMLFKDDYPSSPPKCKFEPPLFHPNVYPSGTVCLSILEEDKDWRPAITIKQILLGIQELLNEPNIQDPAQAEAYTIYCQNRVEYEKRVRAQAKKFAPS"},
  "source": "paper PMC5293797",
  "target": "Myc-Ubc9 (UniProt P63279)",
  "assay": "co-IP; HEK293 cells co-transfected with MEK1, Ubc9 and SUMO1 plasmids for 48 h; lysates immunoprecipitated with anti-c-Myc antibody (text: anti-Ubc9 antibody), immunoblotted with anti-HA or Myc antibody",
  "note": "No constants are given. Whether binding was seen depends on the method and setting. Binding seen in cells or lysates may run through a third protein. Some entries that bind do so weakly or less than the wild type.",
  "data": [
    {"substance": "HA-MEK1 (from UniProt Q02750 1-393)", "values": [
      {"measurement": "binding", "result": "binds"}
    ]}
  ]
}
